Measurements reported in paper PMC6370850.

By UniProt entry, the sequences of proteins in these tests, tags left out.
UniProt P42227: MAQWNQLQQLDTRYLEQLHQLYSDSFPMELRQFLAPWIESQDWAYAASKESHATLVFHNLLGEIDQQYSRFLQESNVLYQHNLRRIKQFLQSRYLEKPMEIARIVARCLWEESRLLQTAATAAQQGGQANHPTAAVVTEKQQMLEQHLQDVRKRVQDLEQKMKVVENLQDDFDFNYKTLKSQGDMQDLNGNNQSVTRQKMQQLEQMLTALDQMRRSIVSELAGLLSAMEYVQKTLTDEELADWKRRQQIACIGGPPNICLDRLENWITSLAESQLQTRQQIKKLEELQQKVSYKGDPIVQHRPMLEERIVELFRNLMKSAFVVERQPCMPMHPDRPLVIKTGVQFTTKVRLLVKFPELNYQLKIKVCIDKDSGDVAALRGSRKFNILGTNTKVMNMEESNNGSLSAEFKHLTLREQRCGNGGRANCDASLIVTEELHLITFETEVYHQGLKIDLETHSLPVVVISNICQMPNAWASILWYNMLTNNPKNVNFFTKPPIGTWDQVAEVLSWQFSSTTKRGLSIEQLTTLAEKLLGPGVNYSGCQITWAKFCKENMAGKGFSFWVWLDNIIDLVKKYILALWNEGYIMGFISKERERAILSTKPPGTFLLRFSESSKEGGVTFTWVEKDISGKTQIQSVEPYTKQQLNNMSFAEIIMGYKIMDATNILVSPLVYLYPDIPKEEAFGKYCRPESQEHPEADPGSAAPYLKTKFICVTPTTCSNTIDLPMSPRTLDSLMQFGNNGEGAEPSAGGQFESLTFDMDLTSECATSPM

Target: Flag-Stat3 (mouse) (UniProt P42227)
Assay: affinity purification with mass spectrometry; ANTI-FLAG M2 Affinity Gel immunoprecipitation from HEK293T cells co-transfected with HA-Ub and Flag-Stat3 or Flag-Malt1A, with or without Xpress-Hectd3; elution with 0.1 M glycine HCl pH 3.5; trypsin digestion, LC-MS/MS

binding: binds
B1: Xpress-Hectd3 (enzyme, UniProt Q3U487 1-861)
chain: MAGPGPGAALESPRQLLGRVRFLAEAARSLRAGLPLPAALAFVPREVLYKLYKDPAGPSRVLLPVWEAEGLGLRVGAVGAAPGTGSGPLRAARDSIELRRGACVRTTGEELCNGHGLWVKLTKEQLAEHLSDCSLDEGWLLVCRPAEGGARLVPIDTPDHLQRQQQLFGVDYRPVLRWEQVVDLTYSHRLGSRPQPAEAYTEAIQRLLYVPPTWTYECDEDLIHFLYDHLGKEDENLGSVKQYVESIDVSSYTEEFNVSCLTDSNADTYWESDGSQCQHWVRLTMKKGTIVKKLLLTVDTTDDNFMPKRVVVYGGEGDNLKKLSDVNIDETLIGDVCVLEDMTVHLPIIEIRIVECRDDGIDVRLRGVKIKSSRQRELGLNADLFQPASLVRYPRLEGTDPEVLYRRAVLLQRFIKILDSVLHHLVPAWDHTLGTFSEIKQVKQFLLLSRQRPSLVAQCLRDSESSKPSFMPRLYINRRLAMEHRACPSRDPACKNAVFTQVYEGLKPSDKYEKPLDYRWPMRYDQWWECKFIAEGIIDQGGGFRDSLADMSEELCPSSADTPVPLPFFVRTANQGNGTGEARDMYVPNPSCRDFAKYEWIGQLMGAALRGKEFLVLALPGFVWKQLSGEEVSWSKDFPAVDSVLVKLLEVMEGVDKETFEFKFGKELTFTTVLSDQQVVELIPGGTGIVVEYEDRSRFIQLVRKARLEESKEQVAAMQAGLLKVVPQAVLDLLTWQELEKKVCGDPEVTVDALRKLTRFEDFEPSDTRVQYFWEALNNFTNEDRSRFLRFVTGRSRLPARIYIYPDKLGYETTDALPESSTCSSTLFLPHYASAKVCEEKLRYAAYNCVAIDTDMSPWEE

Results are given in words; binding and its absence hold for the method and conditions named. Binding seen in cells or lysates may run through a third protein. A yes stands for co-enrichment or nearness to the bait. Other partners may have been found.
